Values quoted from earlier work, collected in patent US20230212208A1, “Colour Tunable Luminescent Bidentate Platinum (II) Complexes for Probing Mismatch DNA” (THE UNIVERSITY OF HONG KONG, priority 2019, published 2023).
For at least one compound, name, drawing or mass did not settle the structure.

Tested on: mismatched DNA
Details: mismatched vs matched DNA, classical intercalator; cited from earlier work

CC[n+]1c(-c2ccccc2)c2cc(N)ccc2c2ccc(N)cc21 [ethidium bromide]
difference in emission intensity: 0.9 fold
